No constants are given. Whether binding was seen depends on the method and setting. Some entries that bind do so weakly or less than the wild type.
Tests used:
Experiment in all cases: dynamic light scattering; pH 3, 2.5 μM protein in 50 mM sodium phosphate, 1 mM TCEP, incubated 30 minutes at 65 °C before measurement, 25 °C; both purified
[1] = target: FG-repeat domain of human Nup98 (Nup98^FG; residues 1-384), wild type (human) (UniProt P52948)
[2] = target: Nup98^FG F228S mutant (human) (UniProt P52948)
[3] = target: Nup98^FG F102S mutant (human) (UniProt P52948)
[4] = target: Nup98^FG F319S mutant (human) (UniProt P52948)
[5] = target: Nup98^FG F102S/F319S double mutant (human) (UniProt P52948)

B1: FG-repeat domain of human Nup98 (Nup98^FG; residues 1-384), wild type (protein)
chain: MFNKSFGTPFGGGTGGFGTTSTFGQNTGFGTTSGGAFGTSAFGSSNNTGGLFGNSQTKPGGLFGTSSFSQPATSTSTGFGFGTSTGTANTLFGTASTGTSLFSSQNNAFAQNKPTGFGNFGTSTSSGGLFGTTNTTSNPFGSTSGSLFGPSSFTAAPTGTTIKFNPPTGTDTMVKAGVSTNISTKHQCITAMKEYESKSLEELRLEDYQANRKGPQNQVGAGTTTGLFGSSPATSSATGLFSSSTTNSGFAYGQNKTAFGTSTTGFGTNPGGLFGQQNQQTTSLFSKPFGQATTTQNTGFSFGNTSTIGQPSTNTMGLFGVTQASQPGGLFGTATNTSTGTAFGTGTGLFGQTNTGFGAVGSTLFGNNKLTTFGSSTTSAPSFG
[1]
  binding: binds weakly

B2: Nup98^FG F228S mutant (protein)
chain: MFNKSFGTPFGGGTGGFGTTSTFGQNTGFGTTSGGAFGTSAFGSSNNTGGLFGNSQTKPGGLFGTSSFSQPATSTSTGFGFGTSTGTANTLFGTASTGTSLFSSQNNAFAQNKPTGFGNFGTSTSSGGLFGTTNTTSNPFGSTSGSLFGPSSFTAAPTGTTIKFNPPTGTDTMVKAGVSTNISTKHQCITAMKEYESKSLEELRLEDYQANRKGPQNQVGAGTTTGLSGSSPATSSATGLFSSSTTNSGFAYGQNKTAFGTSTTGFGTNPGGLFGQQNQQTTSLFSKPFGQATTTQNTGFSFGNTSTIGQPSTNTMGLFGVTQASQPGGLFGTATNTSTGTAFGTGTGLFGQTNTGFGAVGSTLFGNNKLTTFGSSTTSAPSFG
[2]
  binding: binds weakly

B3: Nup98^FG F102S mutant (protein)
chain: MFNKSFGTPFGGGTGGFGTTSTFGQNTGFGTTSGGAFGTSAFGSSNNTGGLFGNSQTKPGGLFGTSSFSQPATSTSTGFGFGTSTGTANTLFGTASTGTSLSSSQNNAFAQNKPTGFGNFGTSTSSGGLFGTTNTTSNPFGSTSGSLFGPSSFTAAPTGTTIKFNPPTGTDTMVKAGVSTNISTKHQCITAMKEYESKSLEELRLEDYQANRKGPQNQVGAGTTTGLFGSSPATSSATGLFSSSTTNSGFAYGQNKTAFGTSTTGFGTNPGGLFGQQNQQTTSLFSKPFGQATTTQNTGFSFGNTSTIGQPSTNTMGLFGVTQASQPGGLFGTATNTSTGTAFGTGTGLFGQTNTGFGAVGSTLFGNNKLTTFGSSTTSAPSFG
[3]
  binding: binds weakly

B4: Nup98^FG F319S mutant (protein)
chain: MFNKSFGTPFGGGTGGFGTTSTFGQNTGFGTTSGGAFGTSAFGSSNNTGGLFGNSQTKPGGLFGTSSFSQPATSTSTGFGFGTSTGTANTLFGTASTGTSLFSSQNNAFAQNKPTGFGNFGTSTSSGGLFGTTNTTSNPFGSTSGSLFGPSSFTAAPTGTTIKFNPPTGTDTMVKAGVSTNISTKHQCITAMKEYESKSLEELRLEDYQANRKGPQNQVGAGTTTGLFGSSPATSSATGLFSSSTTNSGFAYGQNKTAFGTSTTGFGTNPGGLFGQQNQQTTSLFSKPFGQATTTQNTGFSFGNTSTIGQPSTNTMGLSGVTQASQPGGLFGTATNTSTGTAFGTGTGLFGQTNTGFGAVGSTLFGNNKLTTFGSSTTSAPSFG
[4]
  binding: no binding (condition: at pH 3 (2.5 μM protein))

B5: Nup98^FG F102S/F319S double mutant (protein)
chain: MFNKSFGTPFGGGTGGFGTTSTFGQNTGFGTTSGGAFGTSAFGSSNNTGGLFGNSQTKPGGLFGTSSFSQPATSTSTGFGFGTSTGTANTLFGTASTGTSLSSSQNNAFAQNKPTGFGNFGTSTSSGGLFGTTNTTSNPFGSTSGSLFGPSSFTAAPTGTTIKFNPPTGTDTMVKAGVSTNISTKHQCITAMKEYESKSLEELRLEDYQANRKGPQNQVGAGTTTGLFGSSPATSSATGLFSSSTTNSGFAYGQNKTAFGTSTTGFGTNPGGLFGQQNQQTTSLFSKPFGQATTTQNTGFSFGNTSTIGQPSTNTMGLSGVTQASQPGGLFGTATNTSTGTAFGTGTGLFGQTNTGFGAVGSTLFGNNKLTTFGSSTTSAPSFG
[5]
  binding: no binding (condition: at pH 3 (2.5 μM protein))

— publication PMC11076500, “Impact of distinct FG nucleoporin repeats on Nup98 self-association” (Nature Communications, 2024)
